Test [1] has as its system ReNCell VM. Description: neuronal differentiation score (DCX+ cell fraction vs untreated, manual image score) (score (-3 to 3)); higher = more neuronal differentiation. The note with it: 2 uM, 2 weeks.
In test [2] the test system is ReNCell VM. Description: dopaminergic neuron differentiation score (TH+ cell fraction vs untreated, manual image score) (score (0 to 3)); higher = more TH+ dopaminergic neuron differentiation. The note with it: 2 uM, 4 weeks, BDNF 10 ng/ml + GDNF 10 ng/ml.

This note sets out measurements from the supplement of paper PMC4635364.

Structures can show the parent of a compound that is named as a salt. This is one part of the list. This data set is noisy: repeats of one test often differ as much as different tests do.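 Human fetal ventral-midbrain neural progenitor line ReNCell VM, differentiated without mitogens. Images stained for doublecortin (early neurons) or tyrosine hydroxylase (dopaminergic neurons) were scored by blinded raters against untreated wells (0 = no change). Repeats and both raters were averaged, and compounds averaging 2 or higher were picked as hits for retesting.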

Take `O=C1NCN(c2ccccc2)C12CCN(CC1COc3ccccc3O1)CC2` (stereo not drawn) [Spiroxatrine]: the neuronal differentiation score in the test with ReNCell VM [1] (library: LOPAC) and in the test on ReNCell VM [1] (library: Tocriscreen) was inactive: 0 in each case. In addition, the “dopaminergic neuron differentiation score” value in the test on ReNCell VM [2] (library: LOPAC) and with ReNCell VM [2] (library: Tocriscreen) was inactive: 0 each time.

Consider `COc1ccc2c(c1)[C@@]13CCCC[C@H]1[C@@H](C2)NCC3` [3-Methoxy-morphanin hydrochloride], for which the neuronal differentiation score with ReNCell VM [1] (library: LOPAC) was inactive: 0. The “dopaminergic neuron differentiation score” value with ReNCell VM [2] (library: LOPAC) was inactive: 0.

As to `CO[C@]12C[C@@H](COC(=O)c3cncc(Br)c3)CN(C)[C@@H]1Cc1cn(C)c3cccc2c13` [Nicergoline], the neuronal differentiation score in the test with ReNCell VM [1] (library: Prestwick) and in the test with ReNCell VM [1] (library: Tocriscreen) was inactive: 0 each time. The “dopaminergic neuron differentiation score” value in the test on ReNCell VM [2] (library: Prestwick) and in the test with ReNCell VM [2] (library: Tocriscreen) was inactive: 0 each time.

Turning to `CCNC(=O)[C@H]1O[C@@H](n2cnc3c(N)ncnc32)[C@H](O)[C@@H]1O`, the neuronal differentiation score in the test on ReNCell VM [1] (library: Tocriscreen) was inactive: -3. The “dopaminergic neuron differentiation score” value in the test on ReNCell VM [2] (library: Tocriscreen) was inactive: 0.

For `O=C(CCCN1CCC2(CC1)C(=O)NCN2c1ccccc1)c1ccc(F)cc1` [Spiperone hydrochloride], the neuronal differentiation score in the test on ReNCell VM [1] (library: LOPAC) and in the test with ReNCell VM [1] (library: Tocriscreen) was inactive: 0 each time. Besides, the “dopaminergic neuron differentiation score” value in the test on ReNCell VM [2] (library: LOPAC) and in the test with ReNCell VM [2] (library: Tocriscreen) was inactive: 0 throughout.

Take `CCCN1C[C@H](CSC)C[C@@H]2c3cccc4[nH]cc(c34)C[C@H]21`: the neuronal differentiation score with ReNCell VM [1] (library: Spectrum) is inactive: 0. Moreover, the “dopaminergic neuron differentiation score” value in the test on ReNCell VM [2] (library: Spectrum) was inactive: 0.

As to `C#CCN(C)[C@H](C)Cc1ccccc1`, the neuronal differentiation score in the test on ReNCell VM [1] (library: Spectrum) was inactive: 0. In the test with ReNCell VM [2] (library: Spectrum), the “dopaminergic neuron differentiation score” value was inactive: 0.

Regarding `Oc1ccc2c3c1O[C@H]1c4oc5ccccc5c4C[C@@]4(O)[C@@H](C2)N(CC2CC2)CC[C@]314` [Naltriben methanesulfonate], the neuronal differentiation score with ReNCell VM [1] (library: LOPAC) was inactive: 0. Also, in the test on ReNCell VM [2] (library: LOPAC), the “dopaminergic neuron differentiation score” value is inactive: 0.

On to `CC[N+](CC)(CCCNC1=CC(=O)C(NCCC[N+](CC)(CC)Cc2ccccc2)=CC1=O)Cc1ccccc1` [Benzoquinonium dibromide], for which the neuronal differentiation score in the test with ReNCell VM [1] (library: Tocriscreen) was inactive: 0. The “dopaminergic neuron differentiation score” value with ReNCell VM [2] (library: Tocriscreen) is inactive: 0.

`CNc1ccc(C(=O)CC(O)CCC(C)C2OC(=O)CC(O)CC(=O)CC(O)CC(O)CC(O)CC(O)CC3(O)CC(O)C(C(=O)OC)C(CC(O[C@@H]4O[C@H](C)[C@@H](O)[C@H](N)[C@@H]4O)/C=C/C=C/C=C/C=C/C=C/C=C/C=C/C2C)O3)cc1.COC(=O)C1C(O)CC2(O)CC(O)CC(O)CC(O)CC(O)CC(=O)CC(O)CC(=O)OC(C(C)CCC(O)CC(=O)c3ccc(N)cc3)C(C)/C=C/C=C/C=C/C=C/C=C/C=C/C=C/C(O[C@@H]3O[C@H](C)[C@@H](O)[C@H](N)[C@@H]3O)CC1O2` (stereo partly drawn): the neuronal differentiation score with ReNCell VM [1] (library: Spectrum) was inactive: 0. In addition, the “dopaminergic neuron differentiation score” value in the test with ReNCell VM [2] (library: Spectrum) was inactive: 0.

Regarding `CC(=O)NCCc1c[nH]c2ccccc12` [N-Acetyltryptamine], the figures for the neuronal differentiation score with ReNCell VM [1] (library: LOPAC) and in the test with ReNCell VM [1] (library: Tocriscreen) were inactive: -1 and inactive: 0, respectively. Also, the “dopaminergic neuron differentiation score” value in the test on ReNCell VM [2] (library: LOPAC) and in the test on ReNCell VM [2] (library: Tocriscreen) was inactive: 0 each time.

Regarding `CCC1(C2=NCCN2)Cc2ccccc2O1` (stereo not drawn) [Efaroxan hydrochloride], the neuronal differentiation score in the test on ReNCell VM [1] (library: LOPAC) and in the test with ReNCell VM [1] (library: Tocriscreen) was inactive: 0 in each case. The “dopaminergic neuron differentiation score” value with ReNCell VM [2] (library: LOPAC) and with ReNCell VM [2] (library: Tocriscreen) was inactive: 0 each time.

Regarding `C[C@]12CC[C@H]3[C@@H](CCC4=CC(=O)CC[C@@H]43)[C@@H]1CC[C@@H]2O` [Nandrolone], in the test with ReNCell VM [1] (library: Prestwick), the neuronal differentiation score was inactive: 0. Further, the “dopaminergic neuron differentiation score” value in the test with ReNCell VM [2] (library: Prestwick) was inactive: 0.

On to `O=C1CN=C(c2cccc(Br)c2)c2oc3ccccc3c2N1`, for which, in the test on ReNCell VM [1] (library: Tocriscreen), the neuronal differentiation score was inactive: 0. In addition, the “dopaminergic neuron differentiation score” value with ReNCell VM [2] (library: Tocriscreen) was inactive: 1.

Turning to `COc1ccc(C[C@H]2NC[C@H](O)[C@H]2OC(C)=O)cc1` [Anisomycin], the neuronal differentiation score in the test on ReNCell VM [1] (library: Phytochemical) and with ReNCell VM [1] (library: Tocriscreen) was inactive: 0 each time. The “dopaminergic neuron differentiation score” value in the test with ReNCell VM [2] (library: Phytochemical) and in the test with ReNCell VM [2] (library: Tocriscreen) was inactive: 0 in each case.

As to `CN[C@@H]1C[C@@H](c2ccc(Cl)c(Cl)c2)c2ccccc21` [Indatraline hydrochloride], the neuronal differentiation score with ReNCell VM [1] (library: LOPAC) and in the test on ReNCell VM [1] (library: Tocriscreen) was inactive: 0 throughout. The “dopaminergic neuron differentiation score” value in the test with ReNCell VM [2] (library: LOPAC) and with ReNCell VM [2] (library: Tocriscreen) was inactive: 0 each time.

As to `CCN1C[C@]2(COC)[C@H](O)C[C@H](OC)[C@@]34[C@@H]5C[C@@]6(O)[C@H](OC(=O)c7ccccc7)[C@@H]5[C@@](OC(C)=O)([C@@H]([C@H](OC)[C@H]23)[C@@H]14)[C@@H](O)[C@@H]6OC`, the neuronal differentiation score in the test with ReNCell VM [1] (library: Spectrum) was inactive: 1. In the test on ReNCell VM [2] (library: Spectrum), the “dopaminergic neuron differentiation score” value was inactive: 0.

Turning to `C[C@H](Cc1ccc2c(c1)OC(C(=O)O)(C(=O)O)O2)NC[C@H](O)c1cccc(Cl)c1`, the neuronal differentiation score in the test on ReNCell VM [1] (library: LOPAC) was inactive: 0. The “dopaminergic neuron differentiation score” value in the test with ReNCell VM [2] (library: LOPAC) was inactive: 0.

As for `O=C1C(Cl)=C(Cl)C(=O)C(Cl)=C1Cl`, in the test with ReNCell VM [1] (library: Spectrum), the neuronal differentiation score was inactive: 0. The “dopaminergic neuron differentiation score” value in the test on ReNCell VM [2] (library: Spectrum) was inactive: 0.

Consider `CC(C)[C@@]1(NC(=O)[C@@H]2C[C@@H]3c4cccc5[nH]cc(c45)C[C@H]3N(C)C2)O[C@@]2(O)[C@@H]3CCCN3C(=O)[C@H](Cc3ccccc3)N2C1=O` [Dihydroergocristine methanesulfonate], for which, in the test on ReNCell VM [1] (library: LOPAC), the neuronal differentiation score was inactive: 1. Moreover, in the test with ReNCell VM [2] (library: LOPAC), the “dopaminergic neuron differentiation score” value is inactive: 0.

For `C=CCN1C[C@H](C)N([C@H](c2ccc(C(=O)N(CC)CC)cc2)c2cccc(OC)c2)C[C@H]1C`, the neuronal differentiation score with ReNCell VM [1] (library: LOPAC) and with ReNCell VM [1] (library: Tocriscreen) was inactive: 0 throughout. The “dopaminergic neuron differentiation score” value with ReNCell VM [2] (library: LOPAC) and in the test with ReNCell VM [2] (library: Tocriscreen) was inactive: 0 each time.
